Test results as given in PMC10138966.
These are yes or no findings as the source states them, for the method shown. Binding seen in cells or lysates may run through a third protein. Some binding calls cover weakened binding; strength is not graded here.

Chains of the proteins cited; added tags and fusions are not shown.
UniProt Q16665: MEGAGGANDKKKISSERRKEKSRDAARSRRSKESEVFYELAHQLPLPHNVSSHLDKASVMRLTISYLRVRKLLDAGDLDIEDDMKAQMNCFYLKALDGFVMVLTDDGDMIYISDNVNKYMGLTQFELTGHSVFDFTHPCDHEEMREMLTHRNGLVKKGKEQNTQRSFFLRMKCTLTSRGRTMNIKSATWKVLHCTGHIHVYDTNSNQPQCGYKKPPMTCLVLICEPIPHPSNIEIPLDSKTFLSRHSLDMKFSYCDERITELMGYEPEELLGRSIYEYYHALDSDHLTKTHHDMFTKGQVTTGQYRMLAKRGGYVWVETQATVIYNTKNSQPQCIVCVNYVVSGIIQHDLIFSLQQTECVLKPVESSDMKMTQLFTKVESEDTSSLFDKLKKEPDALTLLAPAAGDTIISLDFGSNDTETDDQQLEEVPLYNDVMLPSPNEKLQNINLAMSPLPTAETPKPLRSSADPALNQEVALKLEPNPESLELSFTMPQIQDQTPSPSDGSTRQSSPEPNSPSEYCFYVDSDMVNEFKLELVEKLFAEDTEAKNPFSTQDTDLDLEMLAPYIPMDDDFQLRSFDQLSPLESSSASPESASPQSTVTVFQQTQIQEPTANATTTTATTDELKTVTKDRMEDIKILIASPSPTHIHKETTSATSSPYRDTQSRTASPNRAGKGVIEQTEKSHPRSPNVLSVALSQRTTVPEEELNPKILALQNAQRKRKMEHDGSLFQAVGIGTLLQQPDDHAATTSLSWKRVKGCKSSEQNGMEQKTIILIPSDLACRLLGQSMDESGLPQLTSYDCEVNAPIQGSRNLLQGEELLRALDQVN

Molecular target: hypoxia-inducible factor-1α (HIF1α) (human (endogenous in SGC7901)) (UniProt Q16665)
Assay: co-IP; SGC7901 cells after hypoxic stimulation for 24 h; which protein was precipitated is not told

binding: binds
B1: serine hydroxymethyltransferase 2 (SHMT2) (enzyme, UniProt P34897 30-504)
chain: NAAQTQTGEANRGWTGQESLSDSDPEMWELLQREKDRQCRGLELIASENFCSRAALEALGSCLNNKYSEGYPGKRYYGGAEVVDEIELLCQRRALEAFDLDPAQWGVNVQPYSGSPANLAVYTALLQPHDRIMGLDLPDGGHLTHGYMSDVKRISATSIFFESMPYKLNPKTGLIDYNQLALTARLFRPRLIIAGTSAYARLIDYARMREVCDEVKAHLLADMAHISGLVAAKVIPSPFKHADIVTTTTHKTLRGARSGLIFYRKGVKAVDPKTGREIPYTFEDRINFAVFPSLQGGPHNHAIAAVAVALKQACTPMFREYSLQVLKNARAMADALLERGYSLVSGGTDNHLVLVDLRPKGLDGARAERVLELVSITANKNTCPGDRSAITPGGLRLGAPALTSRQFREDDFRRVVDFIDEGVNIGLEVKSKTAKLQDFKSFLLKDSETSQRLANLRQRVEQFARAFPMPGFDEH
